Assay [1] addresses T1, His-tagged recombinant AtNF-YB2 (Arabidopsis thaliana) (UniProt Q9FGJ3).
T1 sequence: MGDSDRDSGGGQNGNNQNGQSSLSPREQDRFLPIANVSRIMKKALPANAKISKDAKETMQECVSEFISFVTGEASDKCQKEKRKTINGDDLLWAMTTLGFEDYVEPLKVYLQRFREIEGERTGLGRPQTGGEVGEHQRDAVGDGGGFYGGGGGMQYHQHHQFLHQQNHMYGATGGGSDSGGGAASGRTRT
Description: pull-down; as a4, with labelled TnT produced AtNF-YA6 added to the load together with an AtNF-YC (Figure 3B); His-tagged AtNF-YB2 held on Nickel-agarose; only the target purified.

Protein sequences, listed by entry. Tags and fused reporters are not part of them.
UniProt Q9LVJ7: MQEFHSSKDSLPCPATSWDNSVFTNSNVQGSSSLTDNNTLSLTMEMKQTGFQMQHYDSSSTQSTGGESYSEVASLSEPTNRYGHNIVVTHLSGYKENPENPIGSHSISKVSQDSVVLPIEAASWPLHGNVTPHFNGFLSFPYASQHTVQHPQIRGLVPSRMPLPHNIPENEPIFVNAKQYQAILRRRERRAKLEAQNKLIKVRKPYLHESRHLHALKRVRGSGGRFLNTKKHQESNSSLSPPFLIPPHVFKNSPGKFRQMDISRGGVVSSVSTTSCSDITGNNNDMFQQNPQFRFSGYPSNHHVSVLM

The target of assay [2] is T2, AtNF-YB6/AtNF-YC3 dimer (recombinant, renatured together) (Arabidopsis thaliana) (UniProt Q84W66+Q9ZVL3).
T2 sequence 1: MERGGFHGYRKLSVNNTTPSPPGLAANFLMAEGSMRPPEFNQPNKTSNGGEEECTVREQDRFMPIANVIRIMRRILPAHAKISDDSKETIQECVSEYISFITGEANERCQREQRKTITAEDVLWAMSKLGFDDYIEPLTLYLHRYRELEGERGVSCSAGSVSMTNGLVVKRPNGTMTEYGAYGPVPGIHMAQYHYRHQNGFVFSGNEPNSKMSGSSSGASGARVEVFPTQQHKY
T2 sequence 2: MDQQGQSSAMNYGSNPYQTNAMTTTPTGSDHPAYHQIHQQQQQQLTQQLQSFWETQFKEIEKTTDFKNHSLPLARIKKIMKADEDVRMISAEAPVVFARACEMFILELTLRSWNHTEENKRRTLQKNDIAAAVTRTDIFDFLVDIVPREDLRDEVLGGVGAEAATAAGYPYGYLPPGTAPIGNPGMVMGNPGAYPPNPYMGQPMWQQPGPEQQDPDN
Description: native gel or EMSA; Figure 5B: recombinant AtNF-YB6/AtNF-YC3 dimer with other AtNF-YA family members (made in this paper only by TnT, AtNF-YA6 aside); labelled CCAAT oligonucleotide; the read-out is the trimer bound to DNA; only the target purified.

Assay [3] concerns the target T3, mouse NF-YB/NF-YC (recombinant HFD dimer of Figure 4C) (mouse) (UniProt P63139+P70353).
T3 sequence 1: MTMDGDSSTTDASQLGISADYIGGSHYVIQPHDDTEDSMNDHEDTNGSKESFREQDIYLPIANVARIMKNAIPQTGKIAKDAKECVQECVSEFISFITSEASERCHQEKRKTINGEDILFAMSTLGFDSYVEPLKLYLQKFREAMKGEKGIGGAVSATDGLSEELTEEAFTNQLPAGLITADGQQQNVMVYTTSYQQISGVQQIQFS
T3 sequence 2: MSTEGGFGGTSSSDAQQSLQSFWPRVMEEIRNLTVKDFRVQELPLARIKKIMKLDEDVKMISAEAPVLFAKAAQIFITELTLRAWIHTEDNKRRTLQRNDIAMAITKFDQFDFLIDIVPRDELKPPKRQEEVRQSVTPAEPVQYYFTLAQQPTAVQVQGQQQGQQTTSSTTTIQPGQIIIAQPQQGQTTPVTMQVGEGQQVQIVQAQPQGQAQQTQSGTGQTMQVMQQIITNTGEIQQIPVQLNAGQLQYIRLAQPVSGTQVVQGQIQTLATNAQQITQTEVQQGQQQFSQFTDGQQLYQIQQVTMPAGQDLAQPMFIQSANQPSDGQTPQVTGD
Description: native gel or EMSA; Figure 4: TnT produced Arabidopsis subunit added to two recombinant mouse subunits; 32P-labelled CCAAT oligonucleotide; NF-Y buffer (20 mM Hepes pH 7.9, 50 mM NaCl, 5% glycerol, 5 mM MgCl2), 15 min 20°C; 4.5% polyacrylamide, 0.5x TBE; the read-out is the trimer bound to DNA; only the target ….

Assay [4] addresses T2, AtNF-YB6/AtNF-YC3 dimer (recombinant, renatured together) (Arabidopsis thaliana). Nature of the assay: native gel or EMSA; Figure 5A: recombinant AtNF-YB/AtNF-YC dimers with recombinant AtNF-YA6 or recombinant mouse NF-YA; 32P-labelled CCAAT oligonucleotide; NF-Y buffer, 15 min 20°C; 4.5% polyacrylamide; the read-out is the trimer bound to DNA; both purified.

Results are given in words; binding and its absence hold for the method and conditions named. For some of these results: Binding seen in cells or lysates may run through a third protein. Some results given as binding are weak or reduced against the parent protein; the word gives no strength. For some of these results: Tags and fused reporters may be left off the sequences shown.

On to “AtNF-YA6 (TnT produced) (from UniProt Q9LVJ7 1-308)”, for which the binding entry in assay [1], in assay [2] and in assay [3] was “binds” each time.
Regarding “recombinant AtNF-YA6 (His-tagged) (from UniProt Q9LVJ7 1-308)”, in assay [4], the binding entry is “binds”.

For the origin of these results see article PMC3422339.
